Reference: patent US20130064812A1, “COMBINATION THERAPIES FOR HEMATOLOGIC MALIGNANCIES” (Gilead Calistoga LLC, priority 2011, published 2013)
At least one compound was matched to its structure with a doubt left.

System: AKT (ser473), GSK3β (ser9)
Assay: AKT and GSK3β phosphorylation in CD19+ CLL cells with lenalidomide (immunoblot)
Conditions: 0.5 μM lenalidomide and/or 1 or 10 μM compound, 48 hours

How did the “AKT activation / phosphorylation (ser473) with lenalidomide” value turn out when `O=c1cc(N2CCOCC2)oc2c(-c3ccccc3)cccc12` [LY294002] was run?
Its value is “antagonized this AKT activation”.
